The source of these data is patent publication US20250241109A1, “Electron Transporting Self-Assembling Monolayer Compound for Use in Optoelectronic and/or Photoelectrochemical Devices and Manufacture Thereof” (Kaunas University of Technology, priority 2024, published 2025).

Each structure is given as a SMILES string.

Data set [1] can be described thus: n-i-p perovskite solar cell performance (J-V characteristics). As to conditions: reverse scan, AM 1.5 G.
Data set [2] is described as follows: Long-term stability tests of photovoltaic cells.

With `CC(C)(C)c1ccc(C(C)(C)C)c(N2C(=O)c3ccc4c5c(ccc(c35)C2=O)C(=O)N(CP(=O)(O)O)C4=O)c1` [Compound V1264, N-(2,5-di-tert-butyl-phenyl)-N′-(methyl)-1,4,5,8-naphthalene tetracarboxylic diimide phosphonic acid], the “Maximum PCE” value in data set [1] (ITO/V1264/mixed perovskite/HTL/MoOx/Ag) worked out at 21.5%. In data set [1], this compound came in with an FF of 77%, a JSC of 24.7 mA cm^−2 and a VOC of 1.13 V. Besides, the “Retention of initial PCE” value in data set [2] (65° C., N2, dark, PTAA as HTL) is “above 90%”. Besides, in data set [2] (65° C., N2-glovebox, hot plate, dark, more than 1000 hours, spiro-OMeTAD HTL), the “Retention of initial PCE” value was “around 72%”. For the same compound, in data set [2] (non-encapsulated devices, N2-glovebox, room temperature, 1000 hours storage), the “Retention of initial PCE” value is “around 84%”.
